Laboratory results from publication PMC7988490, “Molecular insights into replication initiation in a multipartite genome harboring bacterium Deinococcus radiodurans” (The Journal of Biological Chemistry, 2020).
No constants are given. Whether binding was seen depends on the method and setting. In cells and extracts the contact can be indirect. A result given as binding can be weak or reduced; the word gives no strength. Tags and fused reporters may be left off the sequences shown.

Target: C-terminal truncated DnaA with histidine tag (HisAΔCt), expressed in surrogate E. coli (D. radiodurans)
Assay: co-IP; surrogate E. coli co-expressing PprA-C18 and HisAΔCt; total proteins precipitated with antibodies against polyhistidine, detection with antibodies against T18

B1: recombinant PprA (histidine-tagged PprA, His-PprA), purified (natural protein, D. radiodurans, UniProt O32504 1-300, looked up)
chain: MLPLAFLICSGHNKGSMARAKAKDQTDGIYAAFDTLMSTAGVDSQIAALAASEADAGTLDAALTQSLQEAQGRWGLGLHHLRHEARLTDDGDIEILTDGRPSARVSEGFGALAQAYAPMQALDERGLSQWAALGEGYRAPGDLPLAQLKVLIEHARDFETDWSAGRGETFQRVWRKGDTLFVEVARPASAEAALSDAAWDVIASIKDRAFQRELMRRSEKDGMLGALLGARHAGAKANLAQLPEAHFTVQAFVQTLSGAAARNAEEYRAALKTAAAALEEYQGVTTRQLSEVLRHGLRES
binding: binds
